No constants are given. Whether binding was seen depends on the method and setting. Binding seen in cells or lysates may run through a third protein. Some results given as binding are weak or reduced against the parent protein; the word gives no strength. One block for each molecule: values may come before it.
Assays:
[1] = biological target: p85 (PI3-kinase subunit), endogenous protein of 3T3-L1 adipocytes (UniProt P26450); test: co-immunoprecipitation with anti-IRS-1 antibody, anti-p85 blot; 3T3-L1 adipocytes with or without 10 nM ET-1 for 24 h, 17 nM insulin for 10 min
[2] = biological target: p85 (PI3-kinase subunit), endogenous protein of 3T3-L1 adipocytes (UniProt P26450); test: co-immunoprecipitation with anti-IRS-1 antibody, anti-p85 blot; 3T3-L1 adipocytes, 17 nM insulin for 10 min
[3] = biological target: p85 (PI3-kinase subunit), endogenous protein of 3T3-L1 adipocytes (UniProt P26450); test: co-immunoprecipitation with anti-cdc42 antibody, anti-p85 blot; 3T3-L1 adipocytes, 17 nM insulin for 10 min; inhibited by overexpression of WT- or KD-GRK2
[4] = biological target: cdc42, endogenous protein of 3T3-L1 adipocytes (UniProt P60766); test: pull-down of active cdc42 from 3T3-L1 adipocyte lysates with GST-PAK-1 agarose beads, anti-cdc42 blot
[5] = biological target: IRS-1, endogenous protein of 3T3-L1 adipocytes (UniProt P35569); test: co-immunoprecipitation with anti-GRK2 antibody, anti-IRS-1 blot; 3T3-L1 adipocytes, 10 nM ET-1 time course; insulin (17 nM) did not induce the association
[6] = biological target: G protein-q/11 α-subunit (Gαq/11), endogenous protein of 3T3-L1 adipocytes (UniProt P21279); test: heading of the result section of Example 2; co-immunoprecipitation from 3T3-L1 adipocyte lysates
[7] = biological target: G protein-q/11 α-subunit (Gαq/11), endogenous protein of 3T3-L1 adipocytes (UniProt P21279); test: co-immunoprecipitation with anti-GRK2 antibody, anti-Gαq/11 blot; 3T3-L1 adipocytes, 17 nM insulin or 10 nM ET-1 time course
[8] = biological target: G protein-q/11 α-subunit (Gαq/11), endogenous protein of 3T3-L1 adipocytes (UniProt P21279); test: co-immunoprecipitation with anti-GRK2 antibody, anti-Gαq/11 blot; 3T3-L1 adipocytes, 17 nM insulin time course
[9] = biological target: G protein-q/11 α-subunit (Gαq/11), endogenous protein of 3T3-L1 adipocytes (UniProt P21279); test: heading of the result section; co-immunoprecipitation from 3T3-L1 adipocyte lysates

Amino acid sequences for entries named in this document (tags omitted). Residues count along the entry.
UniProt P26450, residues 2-724: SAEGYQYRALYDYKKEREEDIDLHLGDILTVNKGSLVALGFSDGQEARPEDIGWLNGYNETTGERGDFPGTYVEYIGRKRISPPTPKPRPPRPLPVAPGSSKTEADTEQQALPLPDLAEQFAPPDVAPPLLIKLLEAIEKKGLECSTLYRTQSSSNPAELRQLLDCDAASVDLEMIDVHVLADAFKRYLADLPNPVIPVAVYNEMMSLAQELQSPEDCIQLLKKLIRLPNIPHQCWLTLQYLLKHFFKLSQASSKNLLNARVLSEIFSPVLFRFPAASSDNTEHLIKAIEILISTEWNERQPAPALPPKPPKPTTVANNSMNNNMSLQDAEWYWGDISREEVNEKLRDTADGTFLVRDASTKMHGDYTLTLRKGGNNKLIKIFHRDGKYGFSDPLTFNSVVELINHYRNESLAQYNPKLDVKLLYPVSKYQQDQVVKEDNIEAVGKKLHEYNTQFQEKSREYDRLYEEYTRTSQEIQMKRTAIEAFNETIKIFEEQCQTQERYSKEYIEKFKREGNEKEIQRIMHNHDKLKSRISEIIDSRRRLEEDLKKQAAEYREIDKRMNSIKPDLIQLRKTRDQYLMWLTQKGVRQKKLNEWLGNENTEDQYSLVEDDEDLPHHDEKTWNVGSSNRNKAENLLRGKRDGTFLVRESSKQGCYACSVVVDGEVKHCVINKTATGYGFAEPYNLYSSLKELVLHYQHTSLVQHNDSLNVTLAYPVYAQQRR
UniProt P60766, residues 1-188: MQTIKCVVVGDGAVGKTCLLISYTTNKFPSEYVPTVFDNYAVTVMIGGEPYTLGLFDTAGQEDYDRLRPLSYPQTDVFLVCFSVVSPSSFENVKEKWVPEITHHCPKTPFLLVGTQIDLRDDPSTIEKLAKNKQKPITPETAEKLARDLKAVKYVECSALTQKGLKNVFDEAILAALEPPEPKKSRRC
UniProt P35569: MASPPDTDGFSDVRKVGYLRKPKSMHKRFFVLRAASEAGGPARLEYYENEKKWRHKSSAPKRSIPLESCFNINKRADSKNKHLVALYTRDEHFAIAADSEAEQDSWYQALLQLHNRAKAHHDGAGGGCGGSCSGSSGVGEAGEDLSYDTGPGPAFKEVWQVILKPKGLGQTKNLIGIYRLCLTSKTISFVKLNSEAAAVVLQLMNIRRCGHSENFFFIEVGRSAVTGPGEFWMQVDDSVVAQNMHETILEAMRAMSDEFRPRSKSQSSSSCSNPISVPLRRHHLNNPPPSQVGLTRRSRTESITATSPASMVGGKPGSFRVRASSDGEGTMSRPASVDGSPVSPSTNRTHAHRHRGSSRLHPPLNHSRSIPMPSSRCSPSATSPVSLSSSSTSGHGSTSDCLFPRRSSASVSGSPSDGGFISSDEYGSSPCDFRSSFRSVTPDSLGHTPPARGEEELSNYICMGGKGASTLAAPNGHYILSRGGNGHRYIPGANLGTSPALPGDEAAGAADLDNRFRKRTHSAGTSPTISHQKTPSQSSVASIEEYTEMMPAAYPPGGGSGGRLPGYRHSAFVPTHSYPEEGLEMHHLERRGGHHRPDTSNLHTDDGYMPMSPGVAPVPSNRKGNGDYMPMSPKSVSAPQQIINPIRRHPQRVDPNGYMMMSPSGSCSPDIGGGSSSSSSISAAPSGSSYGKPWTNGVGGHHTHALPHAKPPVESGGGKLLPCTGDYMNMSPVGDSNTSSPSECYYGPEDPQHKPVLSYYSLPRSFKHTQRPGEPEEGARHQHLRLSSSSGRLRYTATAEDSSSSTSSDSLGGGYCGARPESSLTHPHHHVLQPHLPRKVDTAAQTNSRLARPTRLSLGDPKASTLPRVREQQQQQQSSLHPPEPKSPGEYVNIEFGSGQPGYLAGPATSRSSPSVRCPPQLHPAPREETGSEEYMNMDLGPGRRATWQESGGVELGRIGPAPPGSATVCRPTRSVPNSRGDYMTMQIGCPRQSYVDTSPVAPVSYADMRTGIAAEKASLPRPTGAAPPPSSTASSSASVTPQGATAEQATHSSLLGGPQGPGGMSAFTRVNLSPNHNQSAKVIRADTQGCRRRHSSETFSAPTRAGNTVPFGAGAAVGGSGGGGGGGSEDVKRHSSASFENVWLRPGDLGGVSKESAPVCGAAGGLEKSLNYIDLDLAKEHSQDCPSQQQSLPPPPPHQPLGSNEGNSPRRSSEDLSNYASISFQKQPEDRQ
UniProt P21279: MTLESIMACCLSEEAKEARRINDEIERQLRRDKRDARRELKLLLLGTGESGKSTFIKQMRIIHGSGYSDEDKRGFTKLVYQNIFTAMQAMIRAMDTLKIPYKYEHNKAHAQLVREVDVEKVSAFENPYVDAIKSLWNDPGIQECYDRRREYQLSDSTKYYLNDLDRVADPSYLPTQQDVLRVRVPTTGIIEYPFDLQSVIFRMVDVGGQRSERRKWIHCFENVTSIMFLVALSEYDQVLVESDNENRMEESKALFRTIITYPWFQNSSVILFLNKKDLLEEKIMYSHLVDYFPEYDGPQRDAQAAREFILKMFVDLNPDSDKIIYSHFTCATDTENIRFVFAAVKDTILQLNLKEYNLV
UniProt Q13153, residues 67-150: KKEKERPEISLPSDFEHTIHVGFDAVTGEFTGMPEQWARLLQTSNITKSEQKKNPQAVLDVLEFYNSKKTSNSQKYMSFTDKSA

Molecule: GST-PAK-1 (PAK-1 agarose beads of the Upstate cdc42 assay kit) (from UniProt Q13153 67-150)
binding [4]: binds

B1: G protein-coupled receptor kinase 2 (GRK2), endogenous protein of 3T3-L1 adipocytes (enzyme, UniProt Q99MK8 1-689, looked up)
chain: MADLEAVLADVSYLMAMEKSKATPAARASKKILLPEPSIRSVMQKYLEDRGEVTFEKIFSQKLGYLLFRDFCLNHLEEAKPLVEFYEEIKKYEKLETEEERVVRSREIFDSYIMKELLACSHPFSKNATEHVQGHLVKKQVPPDLFQPYIEEICQNLRGDVFQKFIESDKFTRFCQWKNVELNIHLTMNDFSVHRIIGRGGFGEVYGCRKADTGKMYAMKCLDKKRIKMKQGETLALNERIMLSLVSTGDCPFIVCMSYAFHTPDKLSFILDLMNGGDLHYHLSQHGVFSEADMRFYAAEIILGLEHMHNRFVVYRDLKPANILLDEHGHVRISDLGLACDFSKKRPHASVGTHGYMAPEVLQKGVAYDSSADWFSLGCMLFKLLRGHSPFRQHKTKDKHEIDRMTLTMAVELPDSFSPELRSLLEGLLQRDVNRRLGCLGRGAQEVKESPFFRSLDWQMVFLQKYPPPLIPPRGEVNAADAFDIGSFDEEDTKGIKLLDSDQELYRNFPLTISERWQQEVAETVFDTINAETDRLEARKKAKNKQLGHEEDYALGKDCIVHGYMSKMGNPFLTQWQRRYFYLFPNRLEWRGEGEAPQSLLTMEEIQSVEETQIKERKCLLLKIRGGKQFVLQCDSDPELVQWKKELRDAYREAQQLVQRVPKMKNKPRSPVVELSKVPLIQRGSANGL
notes: Precipitated from cell lysate with a rabbit polyclonal anti-GRK2 antibody; also called endogenous GRK2
binding [5]: binds | binding [6]: binds | binding [7]: binds | binding [8]: binds | binding [9]: binds

The remaining lines, values ahead:

binding [1]: binds | binding [2]: binds
Molecule: IRS-1, endogenous protein of 3T3-L1 adipocytes (from UniProt P35569 1-1233)

binding [3]: binds
Molecule: cdc42, endogenous protein of 3T3-L1 adipocytes (from UniProt P60766 1-188)
